Read-outs that look alike come from different tables or passages of the source. Results are given in words; binding and its absence hold for the method and conditions named. In cells and extracts the contact can be indirect. Some results given as binding are weak or reduced against the parent protein; the word gives no strength.
Experiments:
[1] = biological target: POPDC1-Myc (Popeye domain-containing protein 1, Myc-tagged) (mouse) (UniProt Q9ES83); assay: co-IP
[2] = biological target: VN-TREK-1 / VC-TREK-1 (human TREK-1c with a half of Venus for BiFC) (human) (UniProt O95069); assay: split reporter
[3] = biological target: VN-TREK-1 / VC-TREK-1 (human TREK-1c with a half of Venus for BiFC) (human) (UniProt O95069); assay: split reporter; remark: listed apart in the source
[4] = biological target: T1, POPDC1-VN / POPDC1-VC (mouse POPDC1 with a half of Venus for BiFC) (mouse) (UniProt Q9ES83); assay: split reporter
T1 sequence: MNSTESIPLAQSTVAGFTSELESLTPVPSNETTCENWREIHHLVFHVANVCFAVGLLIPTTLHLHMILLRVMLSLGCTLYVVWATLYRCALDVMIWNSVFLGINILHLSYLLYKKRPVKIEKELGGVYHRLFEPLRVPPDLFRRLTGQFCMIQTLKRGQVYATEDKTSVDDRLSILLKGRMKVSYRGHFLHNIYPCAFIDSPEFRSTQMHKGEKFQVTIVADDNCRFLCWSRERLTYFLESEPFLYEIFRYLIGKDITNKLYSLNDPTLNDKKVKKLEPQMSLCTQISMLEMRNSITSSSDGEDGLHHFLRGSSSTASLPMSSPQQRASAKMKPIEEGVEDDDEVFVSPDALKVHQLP

Protein sequences, listed by entry. Tags and fused reporters are not part of them. Lines headed by an entry give the natural chain unless they say otherwise; changes in a name come on top. Chains listed by the source or under a name are the forms on record and can include a tag or linker.
VN-TREK-1 / VC-TREK-1 (human TREK-1c with a half of Venus for BiFC) (O95069-3, form named): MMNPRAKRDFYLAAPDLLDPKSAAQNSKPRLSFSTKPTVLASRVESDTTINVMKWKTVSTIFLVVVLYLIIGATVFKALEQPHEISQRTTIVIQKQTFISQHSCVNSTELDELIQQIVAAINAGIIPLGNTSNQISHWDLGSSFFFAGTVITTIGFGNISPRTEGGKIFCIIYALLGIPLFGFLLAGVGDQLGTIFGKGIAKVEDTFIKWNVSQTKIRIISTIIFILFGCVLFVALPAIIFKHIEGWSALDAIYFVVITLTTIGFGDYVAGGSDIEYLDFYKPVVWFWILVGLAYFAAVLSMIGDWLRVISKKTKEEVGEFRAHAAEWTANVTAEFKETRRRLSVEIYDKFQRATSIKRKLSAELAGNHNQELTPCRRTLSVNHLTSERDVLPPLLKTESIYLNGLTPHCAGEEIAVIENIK

binding [1] | binding [2] | binding [3] | binding [4] | Substance
no binding | – | – | – | GFP-tagged epidermal growth factor receptor (EGFR) (from UniProt P00533 25-1210)
– | binds | binds | binds | VN-TREK-1 / VC-TREK-1 (human TREK-1c with a half of Venus for BiFC) (from UniProt O95069-3 1-422)

— doi:10.1101/2021.12.21.473719
